Test results taken from paper PMC11879677.
Results are given in words; binding and its absence hold for the method and conditions named. Binding seen in cells or lysates may run through a third protein. Some entries that bind do so weakly or less than the wild type.

B1: Modulo (Mod) (protein, UniProt P13469 1-542)
chain: MAQKKAVTVKGKKATNGEEKPLAKRVTKSTKVQEEETVVPQSPSKKSRKQPVKEVPQFSEEDESDVEEQNDEQPGDDSDFETEEAAGLIDDEAEEDEEYNSDDEEDDDDDELEPGEVSKSEGADEVDESDDDEEAPVEKPVSKKSEKANSEKSEENRGIPKVKVGKIPLGTPKNQIVFVTNLPNEYLHKDLVALFAKFGRLSALQRFTNLNGNKSVLIAFDTSTGAEAVLQAKPKALTLGDNVLSVSQPRNKEENNERTVVVGLIGPNITKDDLKTFFEKVAPVEAVTISSNRLMPRAFVRLASVDDIPKALKLHSTELFSRFITVRRISQESISRTSELTLVVENVGKHESYSSDALEKIFKKFGDVEEIDVVCSKAVLAFVTFKQSDAATKALAQLDGKTVNKFEWKLHRFERSTSGRAILVTNLTSDATEADLRKVFNDSGEIESIIMLGQKAVVKFKDDEGFCKSFLANESIVNNAPIFIEPNSLLKHRLLKKRLAIGQTRAPRKFQKDTKPNFGKKPFNKRPAQENGGKSFVKRARF
B2: P-element induced wimpy testis (Piwi) (protein, UniProt Q9VKM1 1-843)
chain: MADDQGRGRRRPLNEDDSSTSRGSGDGPRVKVFRGSSSGDPRADPRIEASRERRALEEAPRREGGPTERKPWGDQYDYLNTRPAELVSKKGTDGVPVMLQTNFFRLKTKPEWRIVHYHVEFEPSIENPRVRMGVLSNHANLLGSGYLFDGLQLFTTRKFEQEITVLSGKSKLDIEYKISIKFVGFISCAEPRFLQVLNLILRRSMKGLNLELVGRNLFDPRAKIEIREFKMELWPGYETSIRQHEKDILLGTEITHKVMRTETIYDIMRRCSHNPARHQDEVRVNVLDLIVLTDYNNRTYRINDVDFGQTPKSTFSCKGRDISFVEYYLTKYNIRIRDHNQPLLISKNRDKALKTNASELVVLIPELCRVTGLNAEMRSNFQLMRAMSSYTRMNPKQRTDRLRAFNHRLQNTPESVKVLRDWNMELDKNVTEVQGRIIGQQNIVFHNGKVPAGENADWQRHFRDQRMLTTPSDGLDRWAVIAPQRNSHELRTLLDSLYRAASGMGLRIRSPQEFIIYDDRTGTYVRAMDDCVRSDPKLILCLVPNDNAERYSSIKKRGYVDRAVPTQVVTLKTTKNRSLMSIATKIAIQLNCKLGYTPWMIELPLSGLMTIGFDIAKSTRDRKRAYGALIASMDLQQNSTYFSTVTECSAFDVLANTLWPMIAKALRQYQHEHRKLPSRIVFYRDGVSSGSLKQLFEFEVKDIIEKLKTEYARVQLSPPQLAYIVVTRSMNTRFFLNGQNPPPGTIVDDVITLPERYDFYLVSQQVRQGTVSPTSYNVLYSSMGLSPEKMQKLTYKMCHLYYNWSGTTRVPAVCQYAKKLATLVGTNLHSIPQNALEKKFYYL

Assays:
[1] = target: T1, P-element induced wimpy testis (Piwi) (Drosophila (endogenous in Oregon-R ovaries)) (UniProt Q9VKM1); assay: co-IP; Oregon-R ovary nuclear lysate (NLB: 50 mM Tris-HCl pH 7.5, 20 mM NaCl, 1 mM MgCl2, 1% NP-40; sonicated, Benzonase-treated); anti-Piwi or anti-Mod antibody against isotype IgG control, overnight at 4 °C, Protein A/G magnetic beads; immunoblot
T1 sequence: B2 chain

[2] = target: T2, Modulo (Mod) (Drosophila (endogenous in Oregon-R ovaries)) (UniProt P13469); assay: as above
T2 sequence: B1 chain

| Binder | binding [1] | binding [2] |
| --- | --- | --- |
| B1 | binds | – |
| B2 | – | binds |
